These results are taken from article PMC12361231.

Chains of the proteins cited; added tags and fusions are not shown.
UniProt P10415: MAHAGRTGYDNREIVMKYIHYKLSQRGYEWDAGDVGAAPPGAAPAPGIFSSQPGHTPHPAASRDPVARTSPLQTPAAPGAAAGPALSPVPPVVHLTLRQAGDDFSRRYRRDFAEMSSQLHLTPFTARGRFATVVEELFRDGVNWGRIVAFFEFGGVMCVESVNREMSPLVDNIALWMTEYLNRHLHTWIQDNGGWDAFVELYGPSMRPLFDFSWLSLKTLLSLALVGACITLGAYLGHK
UniProt Q14457: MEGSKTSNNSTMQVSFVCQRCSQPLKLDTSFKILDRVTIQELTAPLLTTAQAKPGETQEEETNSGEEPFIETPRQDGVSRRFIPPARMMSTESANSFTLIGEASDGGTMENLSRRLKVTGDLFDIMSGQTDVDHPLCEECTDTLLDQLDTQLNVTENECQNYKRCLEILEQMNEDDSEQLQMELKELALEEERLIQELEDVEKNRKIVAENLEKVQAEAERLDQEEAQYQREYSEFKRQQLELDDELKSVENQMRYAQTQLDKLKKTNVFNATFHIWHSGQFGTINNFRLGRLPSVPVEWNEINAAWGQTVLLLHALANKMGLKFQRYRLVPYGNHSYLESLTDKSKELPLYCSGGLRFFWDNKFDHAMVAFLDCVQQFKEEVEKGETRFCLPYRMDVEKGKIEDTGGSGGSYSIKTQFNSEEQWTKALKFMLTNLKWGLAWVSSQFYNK

Results are given in words; binding and its absence hold for the method and conditions named. Binding seen in cells or lysates may run through a third protein. Some results given as binding are weak or reduced against the parent protein; the word gives no strength.

The target in the test is B-cell lymphoma-2 (human (endogenous in A498 and 786-O)) (UniProt P10415). Description: co-IP; lysates of A498 and 786-O cells (pc-NC or pc-BNIP3; normoxia or hypoxia, 1% O2); lysis buffer 50 mM Tris-HCl pH 7.5, 100 mM NaCl, 1% Triton X-100, 0.1 mM EDTA, 0.5 mM MgCl2, 10% glycerol; precipitated with Bcl-2 antibody and Protein-A/G Sepharose beads at 4°C; blots probed for Beclin1 and BNIP3.

Regarding Beclin1 (from UniProt Q14457 1-450), the binding entry is listed as “binds”.
